# Experimental data published in PubChem BioAssay AID493014 (National Center for Advancing Translational Sciences (NCATS), 2011).
# Out of some 340,000 compounds screened, about 170 (0.05%) were called active. This list was built around the results that the source calls inconclusive (neither active nor inactive); the mix of calls is not that of the screen. The call rests on the fitted dose curve; in most records, active means well fitted inhibition curve with a large enough effect in the signal ratio, with a control signal flat (not every such curve was filed as active); inconclusive means small, poorly fitted or top-dose-only effect, or effect the other way, or a change in a side signal; inactive means flat fitted curve, though single readings scatter; the % refers to the signal ratio. Potencies of inconclusive entries are doubtful fits and often do not repeat.
# Assay: qHTS Assay to Find Inhibitors of Chronic Active B-Cell Receptor Signaling;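 on activity change, negative = inhibition: plate controls were basal doxycycline-induced cells for no effect and cells given 10 µM MG132 for full effect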
# Details: ABC-DLBCL IkBa-CBG/CBR reporter, luminescence ratio (green luciferase fused to IkBa over red control in TMD8 lymphoma cells), 4 h; activity change, negative = inhibition: at 46.1 µM (top of the series)
# In short: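 TMD8 human ABC-DLBCL cells with doxycycline-inducible IκBα–green luciferase fusion and unfused red luciferase, in 0.5% FBS medium; compounds up to 46 uM, 4 h at 37C. Green/red luminescence ratio, filter-overlap corrected, fitted to concentration-response curves.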
# Potency means the concentration at half of the fitted maximal effect.
Compound,Potency,"activity change, negative = inhibition"
O=C(O)c1ccccc1Nc1cccc(C(F)(F)F)c1,"inconclusive: 14.1 µM [falling, partial curve]",–
Cc1[nH]c2ccc(C(=O)N3CCN(c4cccc(Cl)c4)CC3)cc2c1C,"inconclusive: 35.5 µM [falling, single point]",–
COc1ccc(N2CCN(S(=O)(=O)CCNC(=O)COc3ccccc3C)CC2)cc1,–,inactive: 1.31%
O=C(N/N=C/c1ccncc1)c1cc(C2CC2)nc2ccccc12,–,inactive: -0.512%
CC[N+](C)(CC)CCC[n+]1c(-c2ccccc2)c2cc(N)ccc2c2ccc(N)cc21,–,inconclusive: 18.3%
O=C(COc1ccc(Cl)cc1Cl)NC(=S)Nc1ccc(CN2CCOCC2)cc1,–,inconclusive: 5.53%
CC(C)c1ccc(NC(=O)CSc2nc3ncccc3[nH]2)cc1,–,inactive: -15.4%
Nn1c(-c2ccccc2Cl)nnc1-c1ccccc1Cl,"inconclusive: 23.1 µM [falling, partial curve]",–
Cc1ccc(CNC(=O)Cc2cccs2)cc1,"inconclusive: 23.1 µM [rising, single point]",–
Cc1nn(Cc2ccccc2Cl)c2sc(C(=O)NCCCn3ccnc3)cc12,"inconclusive: 11.2 µM [falling, partial curve]",–
O=C(O)CCCn1cc(NC(=O)c2sc3ccccc3c2Cl)cn1,"inconclusive: 0.891 µM [cytotoxic, full curve]",–
NCCCC[C@H]1CNC(=S)N1CCCCC1CCCCC1,–,inconclusive: -20.7%
O=C(N/N=C/c1cc([N+](=O)[O-])ccc1O)c1cccc2cc[nH]c12,"inconclusive: 3.16 µM [falling, partial curve, poor fit]",–
O=C(Nc1cccnc1)c1cc2nc(C3CC3)cc(C(F)(F)F)n2n1,–,inconclusive: 9.62%
Cc1ccc(S(=O)(=O)CCC(=O)Nc2nnc(-c3cccs3)o2)cc1,–,inconclusive: -19.7%
Cc1cc(=O)[nH]c(SCC(=O)Nc2ccc3c(c2)CCC3)c1C#N,–,inconclusive: 7.55%
COc1cccc2c1NC(C(=O)O)C1CC=CC21 (configuration not stated),–,inactive: 0.531%
Cc1cc(-c2ccccc2)c2ccc(NC(=O)C(C)(C)C)nc2n1,–,inactive: 7.58%
CC(=O)c1ccc(NC(=S)N2CCCC2)cc1,–,inactive: -0.834%
CCCCn1nc(-c2ccccc2)c2nc3ccccc3nc21,–,inactive: 13.3%
COc1ccc(S(=O)(=O)NCCc2c[nH]c3ccc(Cl)cc23)cc1,–,inactive: 1.79%

Compound,Potency,"activity change, negative = inhibition"
COc1ccc2c(c1OC)C(=O)OC2Nc1nc(-c2cccc([N+](=O)[O-])c2)cs1 (configuration not stated),–,inactive: 1.28%
Cc1onc(-c2ccc(Cl)cc2)c1-c1ccnc(SCC(=O)Nc2ccc(C(C)C)cc2)n1,–,inconclusive: 1.69%
Cc1ccc(-c2csc3ncnc(N4CCN(S(=O)(=O)c5cccs5)CC4)c23)cc1,–,inconclusive: 1.88%
COc1cc(/C=N/NC(=O)c2ccc3c(c2)OCO3)ccc1O,"inconclusive: 25.1 µM [falling, partial curve]",–
Cn1c(=O)[nH]c(=O)c2c1nc(Br)n2CCOc1ccccc1,"inconclusive: 25.9 µM [falling, partial curve, poor fit]",–
COc1ccc(N(CC(=O)NCCSC2CCCCC2)S(C)(=O)=O)c(OC)c1,"inconclusive: 18.4 µM [falling, partial curve]",–
COc1cc(CN(C(=S)NCC(=O)N2CCCC2)C2CCCC2)cc(OC)c1OC,–,inconclusive: -2.99%
CC1CCCC(NC(=S)Nc2ccc(SC(F)F)cc2)C1C (configuration not stated),–,inconclusive: -1.25%
N#C/C(=C/c1ccc(Sc2nc3ccccc3[nH]2)o1)c1cccc(F)c1,–,inconclusive: 19.1%
CCOC(=O)c1cccc(N2C(=O)Nc3ccccc3N2O)c1,"inconclusive: 5.8 µM [rising, partial curve, poor fit]",–
COc1ccc(CCC(=O)OCc2csc(CC(=O)Nc3ccc(C)cc3)n2)cc1OC,–,inconclusive: 1.16%
CC(=O)c1cc(C#N)c(NCc2ccccc2)nc1C,–,inconclusive: -2.34%
COC(=O)c1ccccc1N/C=C1\CCc2c(c(C)nn2-c2ccccn2)C1=O,–,inactive: -1.08%
O=C(NC1CCCCC1)c1ccc(S(=O)(=O)N2CCCCC2)cc1,"inconclusive: 29.1 µM [falling, partial curve, poor fit]",–
COc1cc(/C=C2/C(=O)c3cccc([N+](=O)[O-])c3C2=O)c(Br)cc1O,–,inconclusive: -0.318%
Oc1c(Cl)cc(Cl)cc1C=Nc1ccc(Br)cc1,"inconclusive: 25.1 µM [falling, partial curve]",–
COc1cc2c(cc1NC(=O)c1cccc([N+](=O)[O-])c1)oc1ccccc12,–,inconclusive: 9.99%
CC(C)(C)NCC(O)COc1ccccc1C(=O)CCc1ccccc1 (configuration not stated),"inconclusive: 11.2 µM [falling, single point]",–
COc1cc(C2C(C#N)=C(N)Oc3cc(O)ccc32)cc(OC)c1OC (configuration not stated),"inconclusive: 3.55 µM [falling, single point]",–
CCCn1c(N)c(N(CCOC)C(=O)CSc2c(Cl)cccc2Cl)c(=O)[nH]c1=O,–,inactive: 0.486%
COc1ccc(OC)c(NC(=O)CSc2nc3ccccc3c(=O)n2CC2CCCO2)c1 (configuration not stated),–,inconclusive: -21.4%

# Grouped by structure: those above containing four or more nitrogen atoms (13)
Compound,Potency,"activity change, negative = inhibition"
O=C(N/N=C/c1ccncc1)c1cc(C2CC2)nc2ccccc12,–,inactive: -0.512%
CC[N+](C)(CC)CCC[n+]1c(-c2ccccc2)c2cc(N)ccc2c2ccc(N)cc21,–,inconclusive: 18.3%
CC(C)c1ccc(NC(=O)CSc2nc3ncccc3[nH]2)cc1,–,inactive: -15.4%
Nn1c(-c2ccccc2Cl)nnc1-c1ccccc1Cl,"inconclusive: 23.1 µM [falling, partial curve]",–
Cc1nn(Cc2ccccc2Cl)c2sc(C(=O)NCCCn3ccnc3)cc12,"inconclusive: 11.2 µM [falling, partial curve]",–
O=C(N/N=C/c1cc([N+](=O)[O-])ccc1O)c1cccc2cc[nH]c12,"inconclusive: 3.16 µM [falling, partial curve, poor fit]",–
O=C(Nc1cccnc1)c1cc2nc(C3CC3)cc(C(F)(F)F)n2n1,–,inconclusive: 9.62%
CCCCn1nc(-c2ccccc2)c2nc3ccccc3nc21,–,inactive: 13.3%
Cc1onc(-c2ccc(Cl)cc2)c1-c1ccnc(SCC(=O)Nc2ccc(C(C)C)cc2)n1,–,inconclusive: 1.69%
Cc1ccc(-c2csc3ncnc(N4CCN(S(=O)(=O)c5cccs5)CC4)c23)cc1,–,inconclusive: 1.88%
Cn1c(=O)[nH]c(=O)c2c1nc(Br)n2CCOc1ccccc1,"inconclusive: 25.9 µM [falling, partial curve, poor fit]",–
COC(=O)c1ccccc1N/C=C1\CCc2c(c(C)nn2-c2ccccn2)C1=O,–,inactive: -1.08%
CCCn1c(N)c(N(CCOC)C(=O)CSc2c(Cl)cccc2Cl)c(=O)[nH]c1=O,–,inactive: 0.486%

# The listing continues.

Compound,Potency,"activity change, negative = inhibition"
COc1cc2c(cc1NC(=O)C(C)OC(=O)c1ccc(S(=O)(=O)Nc3ccccc3Cl)cc1)oc1ccccc12 (configuration not stated),–,inconclusive: 8.39%
O=C(Nc1ccccc1C(F)(F)F)N1CCN(c2ccc3nnc(-c4ccc(F)cc4)n3n2)CC1,–,inconclusive: -0.412%
CCn1c(CCCOc2ccc(Cl)cc2Cl)nnc1SCC(=O)Nc1cc(F)ccc1C,–,inconclusive: 3.79%
CC(=O)NCCc1nc2cc(NS(=O)(=O)c3ccc(Cl)cc3)ccc2n1C,–,inactive: -0.0031%
N#Cc1c(NC(=O)CSc2n[nH]c(Cc3ccccc3)n2)oc(-c2ccccc2)c1-c1ccccc1,–,inconclusive: -1.45%
O=C(CCC1CCCN(C(=O)c2ccoc2)C1)NCc1ccc(F)c(F)c1 (configuration not stated),–,inconclusive: 7.14%
NC(=O)c1ccccc1NC(=O)COc1ccc2c(c1)OCO2,–,inconclusive: -22%
CCCc1cc(=O)oc2c(CN3CCCC3)c(O)ccc12,–,inconclusive: 1.85%
CC(=O)c1ccc(NC(=O)Nc2ncn(Cc3cccc(C)c3)n2)cc1,–,inactive: -6.45%
CN(C)S(=O)(=O)c1cccc(-c2nn(-c3ccccc3)cc2/C=C2\SC(=S)NC2=O)c1,–,inconclusive: 0.0008%
Cc1ccc(OCC(=O)NCCO)c(Br)c1,–,inconclusive: 24.5%
Cc1nc(SCC(=O)c2cc3ccccc3oc2=O)c(C#N)c(C)c1C(=O)Nc1ccccc1,"inconclusive: 17.8 µM [falling, partial curve, poor fit]",–
NS(=O)(=O)c1cccc(NC(=O)c2cccc(Oc3ccccc3)c2)c1,–,inconclusive: -2.37%
CCc1ccc(N2CC(C(=O)NC3CCCCC3C)CC2=O)cc1 (configuration not stated),–,inactive: 3.81%
CCOc1ccccc1N1CCN(C(=O)c2cc3c(C)cc(C)cc3[nH]2)CC1,–,inactive: -5.59%
O=C(Nc1ccc2[nH]c(=S)sc2c1)Nc1ccccc1F,"inconclusive: 17.8 µM [falling, partial curve]",–
O=C1c2oc3ccc(Cl)cc3c(=O)c2C(c2cccc(Br)c2)N1CCO (configuration not stated),–,inconclusive: -0.0293%
O=C1CC(NNc2ccccc2)C(=O)N1c1ccccc1 (configuration not stated),–,inconclusive: -19.6%
O=C(CSc1n[nH]c(-c2ccccc2)n1)N1CCOCC1,–,inconclusive: -22.4%
CCCCN1/C(=C/c2cccc[n+]2C)Sc2cc(NC(C)=O)ccc21,–,inconclusive: 2.05%
NC(=O)SCC(=O)Nc1ccc(Cl)c(Cl)c1,"inconclusive: 22.4 µM [falling, partial curve, poor fit]",–

Compound,Potency,"activity change, negative = inhibition"
CCCCOc1ccc(/C(O)=C(\C#N)c2nc3ccccc3[nH]2)cc1,–,inconclusive: 4.93%
O=C(O)CCCCCN1C(=O)CSC1=S,"inconclusive: 10 µM [rising, partial curve]",–
CC(C)(C)C(=O)NNC(=O)c1cnccn1,–,inconclusive: 2.05%
NC(=O)c1nc(C2CCCCC2)nc2c1[nH]c(=O)n2-c1ccc(F)cc1,–,inconclusive: -8.81%
O=C(Nc1nnc(S(=O)(=O)N2CCOCC2)s1)c1ccc(F)cc1,–,inconclusive: 14.1%
Cc1ncsc1CCOC(=O)c1ccc([N+](=O)[O-])cc1,–,inactive: 0.503%
O=C(CNCc1ccc(Cl)cc1)Nc1ccc(C(=O)N2CCCCCC2)cc1,–,inconclusive: -3.14%
COc1ccccc1OC(=O)c1cc2ccccc2oc1=O,–,inconclusive: 12.9%
O=C(CNS(=O)(=O)c1ccccc1)NCc1ccccn1,–,inconclusive: -3.24%
CCn1c2ccccc2c2cc(NC(=O)COC(=O)c3ccc(O)cc3)ccc21,–,inconclusive: -0.644%
O=C(/C=C/c1ccc2c(c1)OCO2)NCc1ccco1,"inconclusive: 32.6 µM [falling, partial curve, poor fit]",–
COc1cc(C2CC(c3cccs3)=NN2C(=O)CCl)ccc1OC(F)F (configuration not stated),–,inactive: 12.5%
O=C(CSCc1ccc([N+](=O)[O-])cc1)Nc1ccccc1C(=O)O,–,inactive: 4.16%
COc1ccccc1-c1cc(C(=O)N/N=C/c2ccc(C)o2)c2ccccc2n1,–,inactive: 0.212%
COc1cccc(NC(=O)COC(=O)CNC(=O)C2CCCCC2)c1,–,inconclusive: 4.49%
CCC(C)N(C(=O)CSc1nnc(NC(C)C)s1)C1CCS(=O)(=O)C1 (configuration not stated),–,inactive: 2.67%
Cc1c(F)cccc1NS(=O)(=O)c1ccc2c(c1)c(C)cc(=O)n2C,–,inconclusive: 0.552%
CC(C)(C)c1ccc(-c2nnc(SCCC#N)n2C2CCCC2)cc1,–,inconclusive: -3.37%
COc1ccc(C(=O)Nc2n[nH]c(-c3ccncc3)n2)cc1,–,inconclusive: -4.73%
